{"source": "patent US20150176059", "tested_on": "Z05-D DNA polymerase", "experiment": "inhibition of the protein", "settings": "primer extension on M13, 20 nM Z05-D, 0-2000 nM aptamer, 2.5 mM MgCl2, values in figures only, purified recombinant protein, single-stranded DNA", "note": "The exact form of at least one protein or probe is not confirmed."}
{"sequence": "CGAUCAUCTCAGAACATTCTTAGCGTTTTGTTCTTGTGTAUGAUCG [U1]", "values": [{"measurement": "functional effect of the aptamer", "setting": "dU replacing dT at positions shown as u (low dU content), inhibition reduced by UNG, variant of U0 (NTQ21-46A)", "value": "active"}]}
{"sequence": "CGAUCAUCTCAGAACATTCTTAGCGTTTUGUUCUUGTGTAUGAUCG [U3]", "values": [{"measurement": "functional effect of the aptamer", "setting": "dU replacing dT at positions shown as u (high dU content), inhibition drastically reduced by UNG, variant of U0 (NTQ21-46A)", "value": "active"}]}
{"sequence": "CGATCATCTCAGAACATTCTTAGCGTTTUGUUCUUGTGTATGATCG [U2]", "values": [{"measurement": "functional effect of the aptamer", "setting": "dU replacing dT at positions shown as u (medium dU content), inhibition reduced by UNG, variant of U0 (NTQ21-46A)", "value": "active"}]}
{"sequence": "CGATCATCTCAGAACATTCTTAGCGTTTTGTTCTTGTGTATGATCG [U0 (NTQ21-46A)]", "values": [{"measurement": "functional effect of the aptamer", "value": "active"}]}
